Data as given in paper PMC13193388, “Dimerization‐dependent NOTCH receptor transactivation unveils a class of highly selective NOTCH signalling inhibitors” (The Febs Journal, 2025).
Results are given in words; binding and its absence hold for the method and conditions named. Binding seen in cells or lysates may run through a third protein. Some entries that bind do so weakly or less than the wild type. One block for each substance: values may come before it.

Sequences of proteins named here, by UniProt entry; tags and fusion partners are left off. A change or cut given only in a name is not applied to a line headed by its entry. Residues count along the entry.
UniProt Q04721, residues 26-2471: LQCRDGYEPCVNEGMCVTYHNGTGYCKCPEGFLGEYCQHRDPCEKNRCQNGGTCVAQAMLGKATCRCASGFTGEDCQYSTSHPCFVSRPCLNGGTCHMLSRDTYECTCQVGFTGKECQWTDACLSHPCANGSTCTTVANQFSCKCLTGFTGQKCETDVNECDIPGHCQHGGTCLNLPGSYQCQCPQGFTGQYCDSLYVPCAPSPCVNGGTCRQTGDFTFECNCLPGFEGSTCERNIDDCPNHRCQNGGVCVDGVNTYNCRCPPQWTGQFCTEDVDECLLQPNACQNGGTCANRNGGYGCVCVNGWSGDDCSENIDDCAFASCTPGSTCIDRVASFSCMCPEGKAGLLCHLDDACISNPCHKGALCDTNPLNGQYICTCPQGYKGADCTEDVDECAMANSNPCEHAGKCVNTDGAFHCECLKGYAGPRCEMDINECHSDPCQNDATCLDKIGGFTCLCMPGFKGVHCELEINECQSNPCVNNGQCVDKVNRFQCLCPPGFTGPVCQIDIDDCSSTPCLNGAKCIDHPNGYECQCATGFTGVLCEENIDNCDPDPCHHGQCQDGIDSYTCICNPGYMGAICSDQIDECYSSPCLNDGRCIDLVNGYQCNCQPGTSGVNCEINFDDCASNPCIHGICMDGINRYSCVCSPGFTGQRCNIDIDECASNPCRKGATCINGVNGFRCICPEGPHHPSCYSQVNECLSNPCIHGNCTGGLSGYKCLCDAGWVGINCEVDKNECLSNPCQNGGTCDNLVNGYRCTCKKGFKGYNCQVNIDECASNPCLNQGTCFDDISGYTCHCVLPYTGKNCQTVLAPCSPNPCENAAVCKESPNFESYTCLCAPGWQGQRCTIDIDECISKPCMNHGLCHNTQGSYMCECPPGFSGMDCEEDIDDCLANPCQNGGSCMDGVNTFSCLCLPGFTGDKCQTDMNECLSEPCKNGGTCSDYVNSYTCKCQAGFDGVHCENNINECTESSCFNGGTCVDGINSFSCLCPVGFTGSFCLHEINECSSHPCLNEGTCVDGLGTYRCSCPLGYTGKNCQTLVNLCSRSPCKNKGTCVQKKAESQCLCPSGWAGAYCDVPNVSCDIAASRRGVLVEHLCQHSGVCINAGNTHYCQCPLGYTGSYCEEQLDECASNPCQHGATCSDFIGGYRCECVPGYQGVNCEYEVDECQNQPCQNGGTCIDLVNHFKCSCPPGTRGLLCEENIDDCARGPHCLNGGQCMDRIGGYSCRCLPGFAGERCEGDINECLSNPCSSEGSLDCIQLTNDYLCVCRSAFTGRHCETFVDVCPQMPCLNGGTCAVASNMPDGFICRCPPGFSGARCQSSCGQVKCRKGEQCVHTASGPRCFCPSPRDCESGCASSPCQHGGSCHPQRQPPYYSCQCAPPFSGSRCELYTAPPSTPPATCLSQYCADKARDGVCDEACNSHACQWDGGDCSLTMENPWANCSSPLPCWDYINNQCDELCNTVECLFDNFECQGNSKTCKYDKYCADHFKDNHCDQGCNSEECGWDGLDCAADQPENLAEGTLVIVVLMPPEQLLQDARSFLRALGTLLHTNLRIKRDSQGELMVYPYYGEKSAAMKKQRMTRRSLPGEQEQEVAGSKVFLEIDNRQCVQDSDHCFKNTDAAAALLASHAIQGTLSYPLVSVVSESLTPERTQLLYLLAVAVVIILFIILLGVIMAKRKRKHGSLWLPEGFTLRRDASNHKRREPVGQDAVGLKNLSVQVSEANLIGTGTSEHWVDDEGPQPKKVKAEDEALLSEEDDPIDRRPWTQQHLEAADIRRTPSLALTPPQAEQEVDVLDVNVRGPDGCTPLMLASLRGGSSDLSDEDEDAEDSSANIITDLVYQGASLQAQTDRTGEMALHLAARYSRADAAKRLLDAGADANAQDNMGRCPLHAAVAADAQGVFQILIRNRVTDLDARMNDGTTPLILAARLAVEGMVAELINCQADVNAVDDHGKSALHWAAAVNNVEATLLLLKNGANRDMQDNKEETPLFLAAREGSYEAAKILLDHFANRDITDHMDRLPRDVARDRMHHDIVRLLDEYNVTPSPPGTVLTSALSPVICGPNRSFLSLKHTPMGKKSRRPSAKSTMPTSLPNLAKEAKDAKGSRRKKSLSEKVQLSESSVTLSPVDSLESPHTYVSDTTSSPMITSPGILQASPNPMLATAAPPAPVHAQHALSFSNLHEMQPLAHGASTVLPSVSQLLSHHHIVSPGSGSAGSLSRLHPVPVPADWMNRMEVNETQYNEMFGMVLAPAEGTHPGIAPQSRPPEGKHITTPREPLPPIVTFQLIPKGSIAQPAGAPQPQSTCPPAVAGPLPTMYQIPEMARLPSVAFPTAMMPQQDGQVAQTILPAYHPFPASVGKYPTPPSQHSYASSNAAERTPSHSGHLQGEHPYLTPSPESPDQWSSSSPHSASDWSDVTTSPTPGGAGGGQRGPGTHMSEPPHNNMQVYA
UniProt Q9UM47: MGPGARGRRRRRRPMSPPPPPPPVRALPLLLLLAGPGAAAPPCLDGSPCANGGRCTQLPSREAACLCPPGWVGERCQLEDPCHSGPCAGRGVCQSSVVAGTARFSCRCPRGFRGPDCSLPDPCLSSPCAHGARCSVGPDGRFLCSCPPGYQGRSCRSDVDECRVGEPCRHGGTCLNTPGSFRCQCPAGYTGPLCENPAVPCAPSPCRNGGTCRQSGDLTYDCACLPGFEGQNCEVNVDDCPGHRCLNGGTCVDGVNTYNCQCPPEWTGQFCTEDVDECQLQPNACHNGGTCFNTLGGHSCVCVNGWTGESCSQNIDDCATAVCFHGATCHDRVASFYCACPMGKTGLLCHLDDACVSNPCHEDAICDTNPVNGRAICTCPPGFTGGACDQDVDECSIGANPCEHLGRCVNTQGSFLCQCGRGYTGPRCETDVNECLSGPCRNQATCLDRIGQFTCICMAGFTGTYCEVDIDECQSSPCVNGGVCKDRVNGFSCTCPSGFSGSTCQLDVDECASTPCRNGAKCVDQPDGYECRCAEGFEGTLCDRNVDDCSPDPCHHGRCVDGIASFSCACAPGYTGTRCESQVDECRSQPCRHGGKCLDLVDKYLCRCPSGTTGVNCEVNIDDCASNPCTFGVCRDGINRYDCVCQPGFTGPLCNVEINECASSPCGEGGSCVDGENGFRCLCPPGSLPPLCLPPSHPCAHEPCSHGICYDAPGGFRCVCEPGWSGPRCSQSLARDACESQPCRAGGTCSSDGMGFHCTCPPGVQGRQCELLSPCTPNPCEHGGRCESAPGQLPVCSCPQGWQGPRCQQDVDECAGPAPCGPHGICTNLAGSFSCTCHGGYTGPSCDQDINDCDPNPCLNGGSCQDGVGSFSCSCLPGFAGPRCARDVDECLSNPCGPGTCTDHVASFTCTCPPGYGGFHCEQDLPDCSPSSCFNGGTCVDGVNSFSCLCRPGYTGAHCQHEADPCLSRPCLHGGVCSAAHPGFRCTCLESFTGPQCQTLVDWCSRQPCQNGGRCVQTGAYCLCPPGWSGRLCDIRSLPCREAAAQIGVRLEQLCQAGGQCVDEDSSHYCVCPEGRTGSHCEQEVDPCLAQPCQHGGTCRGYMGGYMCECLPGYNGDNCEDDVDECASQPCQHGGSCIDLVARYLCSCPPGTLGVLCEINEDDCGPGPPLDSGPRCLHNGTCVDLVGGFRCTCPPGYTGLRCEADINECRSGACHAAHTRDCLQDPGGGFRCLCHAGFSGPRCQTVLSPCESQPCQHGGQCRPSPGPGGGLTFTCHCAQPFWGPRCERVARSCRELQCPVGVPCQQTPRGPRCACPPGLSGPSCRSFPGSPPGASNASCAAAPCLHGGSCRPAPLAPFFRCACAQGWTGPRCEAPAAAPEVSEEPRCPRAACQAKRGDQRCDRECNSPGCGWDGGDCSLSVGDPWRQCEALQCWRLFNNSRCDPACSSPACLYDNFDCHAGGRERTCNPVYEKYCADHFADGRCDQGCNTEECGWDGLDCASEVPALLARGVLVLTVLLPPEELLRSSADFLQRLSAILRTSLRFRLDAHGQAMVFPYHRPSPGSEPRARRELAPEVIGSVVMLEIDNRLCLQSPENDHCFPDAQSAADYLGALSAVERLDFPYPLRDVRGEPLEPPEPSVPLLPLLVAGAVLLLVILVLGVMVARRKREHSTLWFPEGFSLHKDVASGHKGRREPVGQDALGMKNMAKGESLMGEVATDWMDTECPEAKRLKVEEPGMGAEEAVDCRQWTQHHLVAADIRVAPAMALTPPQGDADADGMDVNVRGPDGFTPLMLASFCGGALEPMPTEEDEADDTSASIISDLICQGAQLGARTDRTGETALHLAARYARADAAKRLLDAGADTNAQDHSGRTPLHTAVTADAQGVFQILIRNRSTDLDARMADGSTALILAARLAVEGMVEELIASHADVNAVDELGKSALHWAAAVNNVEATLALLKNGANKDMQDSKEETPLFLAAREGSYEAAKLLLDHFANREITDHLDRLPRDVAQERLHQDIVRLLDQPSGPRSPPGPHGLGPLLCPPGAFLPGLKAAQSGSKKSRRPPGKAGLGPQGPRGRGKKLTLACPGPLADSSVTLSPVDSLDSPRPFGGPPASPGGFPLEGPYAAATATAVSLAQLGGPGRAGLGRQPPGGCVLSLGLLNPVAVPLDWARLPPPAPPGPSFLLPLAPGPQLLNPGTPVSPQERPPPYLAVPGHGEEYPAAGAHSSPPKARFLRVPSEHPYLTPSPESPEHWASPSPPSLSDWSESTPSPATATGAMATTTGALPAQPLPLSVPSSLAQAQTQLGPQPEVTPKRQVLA

What was measured:
[1] = target: HIS epitope-tagged N2 immunopurified from tissue culture cells and immobilized on nickel beads (human) (UniProt Q04721); experiment: pull-down; HIS epitope-tagged receptor immunopurified from cells and immobilized on nickel beads, incubated with HA epitope-tagged receptor in the presence or absence of peptides; Western blot
[2] = target: purified recombinant HIS epitope-tagged NOTCH3 extracellular domain (human) (UniProt Q9UM47); experiment: co-IP; purified recombinant N3 ECD incubated with in vitro translated HA epitope-tagged N3-ECD; immunoprecipitation, Western blot; only the target purified
[3] = target: HA epitope-tagged full-length NOTCH3 (human) (UniProt Q9UM47); experiment: proximity ligation; 293T cells stably expressing HA epitope-tagged receptor, 2 μg/mL recombinant human DLL1 for 1 h at 4 °C; mouse and rabbit anti-HA antibodies, Duolink
[4] = target: HIS epitope-tagged full-length NOTCH3 (human) (UniProt Q9UM47); experiment: co-IP; HA and HIS epitope-tagged constructs cotransfected into 293T cells; immunoprecipitation, Western blot

- binding [1]: binds
Substance: HA epitope-tagged N2 incubated with bead-bound HIS epitope-tagged N2 (from UniProt Q04721 26-2471) (receptor)

- binding [2]: binds
Substance: HA epitope-tagged N3-ECD produced by in vitro translation (from UniProt Q9UM47 40-1643) (domain or fragment)

- binding [3]: binds
- binding [4]: binds
Substance: HA epitope-tagged full-length NOTCH3 (from UniProt Q9UM47 40-2321) (receptor)
